Laboratory results published in PMC4385835.
These are yes or no findings as the source states them, for the method shown. Binding seen in cells or lysates may run through a third protein. Binding calls can cover weak binding; strength is not graded here.

Chains of the proteins cited; added tags and fusions are not shown. Lines headed by an entry give the natural chain unless they say otherwise; changes in a name come on top.
UniProt P08253: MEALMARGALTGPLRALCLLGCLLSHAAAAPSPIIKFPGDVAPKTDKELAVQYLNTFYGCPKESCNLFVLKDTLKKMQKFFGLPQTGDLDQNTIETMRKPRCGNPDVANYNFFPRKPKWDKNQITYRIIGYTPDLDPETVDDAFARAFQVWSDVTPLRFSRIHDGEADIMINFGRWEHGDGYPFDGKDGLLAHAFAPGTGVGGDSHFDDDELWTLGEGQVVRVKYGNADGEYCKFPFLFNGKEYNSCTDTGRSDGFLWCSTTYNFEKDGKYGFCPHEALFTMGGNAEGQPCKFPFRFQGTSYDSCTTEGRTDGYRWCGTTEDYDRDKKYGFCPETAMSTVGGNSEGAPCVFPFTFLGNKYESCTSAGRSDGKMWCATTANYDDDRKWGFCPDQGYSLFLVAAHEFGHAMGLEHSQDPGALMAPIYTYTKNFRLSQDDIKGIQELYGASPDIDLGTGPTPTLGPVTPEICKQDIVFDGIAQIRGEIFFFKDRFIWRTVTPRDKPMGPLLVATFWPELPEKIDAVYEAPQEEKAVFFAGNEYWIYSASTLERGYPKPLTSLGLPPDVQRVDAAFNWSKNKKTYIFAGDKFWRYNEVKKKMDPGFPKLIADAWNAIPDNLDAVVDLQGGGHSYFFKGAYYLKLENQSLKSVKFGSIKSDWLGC
UniProt P14780: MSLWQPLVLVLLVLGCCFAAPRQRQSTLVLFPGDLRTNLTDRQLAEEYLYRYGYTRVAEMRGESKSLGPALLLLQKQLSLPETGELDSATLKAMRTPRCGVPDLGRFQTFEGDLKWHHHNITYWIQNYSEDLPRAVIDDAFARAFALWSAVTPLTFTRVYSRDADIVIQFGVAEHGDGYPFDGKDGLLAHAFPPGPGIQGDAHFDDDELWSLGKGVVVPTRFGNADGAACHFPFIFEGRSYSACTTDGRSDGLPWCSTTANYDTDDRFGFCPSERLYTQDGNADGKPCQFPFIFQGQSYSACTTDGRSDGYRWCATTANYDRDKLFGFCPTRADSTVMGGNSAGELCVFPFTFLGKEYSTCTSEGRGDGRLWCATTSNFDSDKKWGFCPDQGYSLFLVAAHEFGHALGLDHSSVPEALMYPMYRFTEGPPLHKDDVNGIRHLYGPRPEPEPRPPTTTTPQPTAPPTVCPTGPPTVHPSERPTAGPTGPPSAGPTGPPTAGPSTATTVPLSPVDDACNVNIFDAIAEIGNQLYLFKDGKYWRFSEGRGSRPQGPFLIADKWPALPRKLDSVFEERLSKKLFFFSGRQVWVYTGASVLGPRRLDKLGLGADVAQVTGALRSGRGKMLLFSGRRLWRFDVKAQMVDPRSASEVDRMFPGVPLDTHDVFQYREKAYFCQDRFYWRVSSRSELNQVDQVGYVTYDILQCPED
UniProt P78536: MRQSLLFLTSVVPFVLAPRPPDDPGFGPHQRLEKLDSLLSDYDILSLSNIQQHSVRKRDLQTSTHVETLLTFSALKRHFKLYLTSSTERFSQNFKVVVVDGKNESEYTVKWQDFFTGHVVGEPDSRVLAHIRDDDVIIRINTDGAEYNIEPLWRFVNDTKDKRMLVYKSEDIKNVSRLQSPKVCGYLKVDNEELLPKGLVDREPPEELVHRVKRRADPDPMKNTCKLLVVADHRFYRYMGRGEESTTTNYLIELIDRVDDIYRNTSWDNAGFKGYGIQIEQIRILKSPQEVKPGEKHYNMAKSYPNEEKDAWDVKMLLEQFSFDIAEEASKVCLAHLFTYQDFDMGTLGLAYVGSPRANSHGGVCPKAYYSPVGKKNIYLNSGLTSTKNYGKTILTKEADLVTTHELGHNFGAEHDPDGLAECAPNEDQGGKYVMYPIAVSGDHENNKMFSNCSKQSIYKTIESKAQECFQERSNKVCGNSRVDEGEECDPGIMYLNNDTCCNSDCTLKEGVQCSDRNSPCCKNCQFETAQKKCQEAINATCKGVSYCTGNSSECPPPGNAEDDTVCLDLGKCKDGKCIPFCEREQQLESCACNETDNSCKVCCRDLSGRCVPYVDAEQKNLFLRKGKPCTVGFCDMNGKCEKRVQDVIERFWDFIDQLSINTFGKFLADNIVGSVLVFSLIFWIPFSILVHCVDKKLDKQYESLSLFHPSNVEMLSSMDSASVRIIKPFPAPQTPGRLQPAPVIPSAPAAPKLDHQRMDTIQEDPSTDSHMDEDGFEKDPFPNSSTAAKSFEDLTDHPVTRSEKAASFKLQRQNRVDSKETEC

B1: claudin-7 (protein, UniProt O95471 1-211)
chain: MANSGLQLLGFSMALLGWVGLVACTAIPQWQMSSYAGDNIITAQAMYKGLWMDCVTQSTGMMSCKMYDSVLALSAALQATRALMVVSLVLGFLAMFVATMGMKCTRCGGDDKVKKARIAMGGGIIFIVAGLAALVACSWYGHQIVTDFYNPLIPTNIKYEFGPAIFIGWAGSALVILGGALLSCSCPGNESKAGYRVPRSYPKSNSSKEYV
B2: phosphorylated claudin-7 (protein, UniProt O95471 1-211)
chain: MANSGLQLLGFSMALLGWVGLVACTAIPQWQMSSYAGDNIITAQAMYKGLWMDCVTQSTGMMSCKMYDSVLALSAALQATRALMVVSLVLGFLAMFVATMGMKCTRCGGDDKVKKARIAMGGGIIFIVAGLAALVACSWYGHQIVTDFYNPLIPTNIKYEFGPAIFIGWAGSALVILGGALLSCSCPGNESKAGYRVPRSYPKSNSSKEYV
modifications: phosphorylated (detected with anti-p-cld7; site not given)

Columns and labels:
[1] = biological target: T1, claudin-7 (human (endogenous in HT29 and SW948)) (UniProt O95471); test: co-IP; lysates of HT29 and SW948 wt and cld7 knock-down cells (HEPES buffer, 1% Lubrol or 1% TritonX-100, 4°C) precipitated with control IgG, anti-EpC, anti-cld7 or anti-Tspan8 and ProteinG-Sepharose; Western blot; precipitates also separated by sucrose density gradient (Fig.1E,1F,4D)
T1 sequence: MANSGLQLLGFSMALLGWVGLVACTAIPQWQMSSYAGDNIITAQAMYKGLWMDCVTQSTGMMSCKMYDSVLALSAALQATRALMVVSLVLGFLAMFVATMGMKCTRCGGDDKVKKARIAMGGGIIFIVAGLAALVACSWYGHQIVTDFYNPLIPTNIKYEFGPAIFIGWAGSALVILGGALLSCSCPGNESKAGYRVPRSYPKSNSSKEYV

[2] = biological target: CD49c (human (endogenous in HT29)); test: co-IP; lysates of PMA-treated HT29 wt and holoclone-derived cells precipitated with control IgG, anti-α3 or anti-β1 and ProteinG-Sepharose; blotted with anti-cld7 and anti-p-cld7 (Fig.3F)

Molecule	binding [1]	binding [2]
MMP2 (from UniProt P08253) (enzyme)	binds weakly	
MMP9 (from UniProt P14780) (enzyme)	binds weakly	
TACE (TNFα converting enzyme) (from UniProt P78536)	binds	
B1		binds
B2		binds
